From publication doi:10.1101/2025.11.11.685192 (bioRxiv, 2025)
Results are given in words; binding and its absence hold for the method and conditions named. Some binding calls cover weakened binding; strength is not graded here.

Target: full-length gp130 S187-Y190 deletion mutant (gp130 ΔSY full-length) (human) (UniProt P40189)
Test: cryo-EM structure

binding: binds weakly
B1: full-length gp130 S187-Y190 deletion mutant (gp130 ΔSY full-length) (receptor, human, UniProt P40189 23-918, looked up)
chain: ELLDPCGYISPESPVVQLHSNFTAVCVLKEKCMDYFHVNANYIVWKTNHFTIPKEQYTIINRTASSVTFTDIASLNIQLTCNILTFGQLEQNVYGITIISGLPPEKPKNLSCIVNEGKKMRCEWDGGRETHLETNFTLKSEWATHKFADCKAKRDTPTSCTVDYFVNIEVWVEAENALGKVTSDHINFDPVYKVKPNPPHNLSVINSEELSSILKLTWTNPSIKSVIILKYNIQYRTKDASTWSQIPPEDTASTRSSFTVQDLKPFTEYVFRIRCMKEDGKGYWSDWSEEASGITYEDRPSKAPSFWYKIDPSHTQGYRTVQLVWKTLPPFEANGKILDYEVTLTRWKSHLQNYTVNATKLTVNLTNDRYLATLTVRNLVGKSDAAVLTIPACDFQATHPVMDLKAFPKDNMLWVEWTTPRESVKKYILEWCVLSDKAPCITDWQQEDGTVHRTYLRGNLAESKCYLITVTPVYADGPGSPESIKAYLKQAPPSKGPTVRTKKVGKNEAVLEWDQLPVDVQNGFIRNYTIFYRTIIGNETAVNVDSSHTEYTLSSLTSDTLYMVRMAAYTDEGGKDGPEFTFTTPKFAQGEIEAIVVPVCLAFLLTTLLGVLFCFNKRDLIKKHIWPNVPDPSKSHIAQWSPHTPPRHNFNSKDQMYSDGNFTDVSVVEIEANDKKPFPEDLKSLDLFKKEKINTEGHSSGIGGSSCMSSSRPSISSSDENESSQNTSSTVQYSTVVHSGYRHQVPSVQVFSRSESTQPLLDSEERPEDLQLVDHVDGGDGILPRQQYFKQNCSQHESSPDISHFERSKQVSSVNEEDFVRLKQQISDHISQSCGSGQMKMFQEVSAADAFGPGTEGQVERFETVGMEAATDEGMPKSYLPQTVRQGGYMPQ
